# Laboratory results reported in PubChem BioAssay AID504648 (National Center for Advancing Translational Sciences (NCATS), 2011).
# Screen size: about 390,000 compounds; about 610 (0.16%) were called active. The shares of active, inactive and inconclusive entries below differ from those in the screen. The call rests on the fitted dose curve; in most records, active means well fitted inhibition curve with a large enough effect; inconclusive means small, poorly fitted or top-dose-only effect, or effect the other way, or another doubt; inactive means no such curve, though single readings can be large or run the other way. Potencies of inconclusive entries are doubtful fits and often do not repeat.
# Assay: Nrf2 qHTS screen for inhibitors: counterscreen for cytotoxicity
# Conditions: A549 ARE-Fluc cells, CellTiter-Fluor viability, 18-24 h; series mostly up to 46 µM
# Outline: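 A549 ARE-Fluc cells in 5% FBS OPTI-MEM, 5000 cells/well, rested 2 h then exposed to compounds in concentration-response for 18-24 h at 37 °C. Viability by CellTiter-Fluor fluorescence (Ex 405/Em 525) after 30 min; luciferase luminescence (BugLite, 15 min, RT) read afterwards.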
# Potency means the concentration at half of the fitted maximal effect.
row,SMILES,Potency
1,Cc1ccccc1NC(=NCCCN1CC1)Nc1ccccc1C,active: 13 µM
2,CC[n+]1c(/C=C/N(C)c2ccccc2)sc2ccc(Cl)cc21,"inconclusive: 23.1 µM [falling, partial curve, poor fit]"
3,CC12CCC(O)CC1CCC1C2CCC2(C)C(C3=CC(=O)OC3)CCC12O (stereo not given),"inconclusive: 2.59 µM [falling, full curve]"
4,CCCOC(=O)c1ccc(-[n+]2c(-c3ccccc3)cc(-c3ccccc3)cc2-c2ccccc2)cc1,"inconclusive: 23.1 µM [falling, partial curve, poor fit]"
5,C=C1C(=O)OC2CC(C)C3C=CC(=O)C3(C)C(O)C12 (stereo not given),active: 10.3 µM
6,CCC1(OC(=O)CN)C(=O)OCc2c1cc1n(c2=O)Cc2cc3ccccc3nc2-1 (stereo not given),"inconclusive: 1.46 µM [falling, full curve, poor fit]"
7,O=C(O)c1cccc(N=Nc2c(O)[nH]c(=O)[nH]c2=O)c1,"inconclusive: 20.6 µM [falling, single point]"
8,COC(=O)C1=C(c2ccccc2OCc2ccccc2)C[C@@H]2CC[C@H]1N2C(=O)NCCOc1ccccc1Cl,"inconclusive: 29.1 µM [falling, partial curve, poor fit]"
9,CC(=O)c1cn(Cc2ccccc2C#N)c2ccccc12,"inconclusive: 3.66 µM [falling, full curve]"
10,CCC(=NCc1cc(OC)cc(OC)c1)c1c(O)n(C)c(=O)n(C)c1=O,"inconclusive: 2.59 µM [falling, partial curve, poor fit]"
11,CC(=O)OC1C2(CC3N4C(=O)C5(CO)SSC4(CC31O)C(=O)N5C)OC(C)C(C)(C)C2=O (stereo not given),active: 7.31 µM
12,CC(=O)N1CCN(c2ccc([N+](=O)[O-])cc2C=C2C(=O)NC(=O)NC2=O)CC1,"inconclusive: 23.1 µM [falling, partial curve, poor fit]"
13,NC(=O)c1c(Br)n(C2OC(CO)C(O)C2O)c2ncnc(N)c12 (stereo not given),"inconclusive: 11.6 µM [falling, partial curve, poor fit]"
14,CC(=O)O[C@H]1[C@H]2O[C@]23[C@@H]2CC[C@]4(O)C[C@@H](O)CC[C@]4(C)C2CC[C@]3(C)[C@H]1c1ccc(=O)oc1 (stereo not given in full),"inconclusive: 0.651 µM [falling, full curve]"
15,O=C1OCc2cc(N=Nc3c(O)[nH]c(=O)[nH]c3=O)ccc21,"inconclusive: 7.31 µM [falling, partial curve, poor fit]"
16,COC(=O)C1=C(c2ccc(F)cc2OCc2ccccc2)C[C@@H]2CC[C@H]1N2C(=O)N1CCC(C)CC1,"inconclusive: 11.6 µM [falling, partial curve, poor fit]"
17,Cc1ccc(N2C(=O)NC(=O)/C(=C\C=C\c3ccco3)C2=O)cc1,inactive
18,S=C=Nc1cccc(C2(N3CCCCC3)CCCCC2)c1,"inconclusive: 25.9 µM [falling, partial curve, poor fit]"
19,O=C(COc1ccc(S(=O)(=O)N2CCOCC2)cc1)N1CCN(Cc2ccc3c(c2)OCO3)CC1,inactive
20,C[C@]12CCC3C(CC[C@H]4[C@@H](O)[C@H](O)CC[C@]34C)C1CCC2=O (stereo not given in full),inactive

row,SMILES,Potency
1,Cc1cc(C)c2c(ccc3cccc[n+]32)c1,"inconclusive: 6.51 µM [falling, partial curve, poor fit]"
2,O=c1[nH]c(=S)n(-c2ccccc2Cl)c(O)c1C=NCCN1CCNCC1,inactive
3,COc1ccc2cc1Oc1ccc(cc1)C[C@H]1c3cc(c(OC)cc3CCN1C)Oc1c(O)c(OC)cc3c1[C@H](C2)N(C)CC3,"inconclusive: 20.6 µM [falling, partial curve]"
4,O=c1[nH]c(=S)[nH]c(O)c1N=Nc1ccc(S(=O)(=O)N2CCc3ccccc32)cc1,inactive
5,CCCCCc1nc2c(c(=O)c3ccccc3n2C)c(=O)n1C1CCCCCC1,"inconclusive: 29.1 µM [falling, single point]"
6,Nc1cc(Cl)c2nonc2c1[N+](=O)[O-],"inconclusive: 20.6 µM [falling, single point]"
7,O=C(Cn1cc(C(=O)c2ccccc2)c2ccccc21)Nc1ccc(Br)cc1,"inconclusive: 16.4 µM [falling, single point]"
8,CCOC(=O)c1cc(C)sc1/N=C/C1C(=O)NC(=S)NC1=O,inactive
9,O=c1ccc2cc(O[C@@H]3O[C@H](CO)[C@@H](O)[C@H](O)[C@H]3O)c(O)cc2o1,"inconclusive: 20.6 µM [activator, partial curve]"
10,CC(C)CCNC(=O)c1c(N)n(Cc2ccc3c(c2)OCO3)c2nc3ccccc3nc12,active: 16.4 µM
11,CCOc1cc(CNCCc2c[nH]c3ccccc23)cc(Cl)c1OC,"inconclusive: 32.6 µM [falling, partial curve, poor fit]"
12,Fc1ccc(Cn2nnnc2C(c2ccc(Cl)cc2)N2CC=C(c3ccc(F)cc3)CC2)cc1 (stereo not given),"inconclusive: 29.1 µM [activator, single point]"
13,COC(=O)C1=C(c2ccc(-c3ccccc3)c(F)c2)C[C@@H]2CC[C@H]1N2C(=O)NC1CCCCC1,"inconclusive: 16.4 µM [falling, single point]"
14,O=C1Nc2ccccc2/C1=C/c1nc2ccccc2c(=O)n1-c1ccc(O)cc1,"inconclusive: 10.3 µM [falling, partial curve, poor fit]"
15,O=C(O)c1ccccc1N=Nc1c(O)[nH]c(=O)[nH]c1=O,"inconclusive: 14.6 µM [falling, single point]"
16,c1ccc(CCNCc2ccccc2)cc1,inactive
17,C[n+]1c(-c2ccccc2)c2cc(N)ccc2c2ccc(N)cc21,"inconclusive: 3.66 µM [falling, partial curve]"
18,C=C1C(O)(c2ccccc2)C2CC[N+]1(C)CC2 (stereo not given),inactive
19,CC(Cc1ccccc1)NC(=O)C(c1ccc(N)cc1)c1ccc(N)cc1 (stereo not given),"inconclusive: 29.1 µM [falling, partial curve, poor fit]"
20,CC1CC(C)(O)CC(C(O)CC2CC(=O)NC(=O)C2)C1=O (stereo not given),"inconclusive: 1.46 µM [falling, full curve]"

# 3 structures already listed, ordered by count of non-hydrogen atoms, high to low:
row,SMILES,Potency
5,CCCCCc1nc2c(c(=O)c3ccccc3n2C)c(=O)n1C1CCCCCC1,"inconclusive: 29.1 µM [falling, single point]"
13,NC(=O)c1c(Br)n(C2OC(CO)C(O)C2O)c2ncnc(N)c12 (stereo not given),"inconclusive: 11.6 µM [falling, partial curve, poor fit]"
1,Cc1cc(C)c2c(ccc3cccc[n+]32)c1,"inconclusive: 6.51 µM [falling, partial curve, poor fit]"
